{"source": "paper doi:10.1101/2024.05.06.590709", "about": "(bioRxiv, 2024)", "key": {"[1]": {"biological_target": "T1, IMPDH1-Clover (Arabidopsis thaliana) (UniProt P47996)", "T1 sequence": "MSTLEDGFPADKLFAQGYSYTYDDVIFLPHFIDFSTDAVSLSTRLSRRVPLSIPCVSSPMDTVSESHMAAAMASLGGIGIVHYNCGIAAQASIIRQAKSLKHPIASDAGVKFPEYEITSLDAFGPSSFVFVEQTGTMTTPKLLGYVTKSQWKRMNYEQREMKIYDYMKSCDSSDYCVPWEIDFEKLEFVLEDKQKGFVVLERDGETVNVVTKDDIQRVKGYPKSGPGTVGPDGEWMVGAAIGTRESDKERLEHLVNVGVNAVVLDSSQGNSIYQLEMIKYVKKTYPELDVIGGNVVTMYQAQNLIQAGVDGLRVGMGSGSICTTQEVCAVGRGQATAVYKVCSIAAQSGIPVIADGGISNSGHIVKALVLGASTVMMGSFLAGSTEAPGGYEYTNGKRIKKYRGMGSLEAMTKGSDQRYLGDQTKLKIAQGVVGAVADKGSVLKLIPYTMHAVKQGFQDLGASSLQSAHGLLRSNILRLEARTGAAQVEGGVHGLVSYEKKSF", "assay": "co-IP"}, "[2]": {"biological_target": "T2, NIT1-Clover (Arabidopsis thaliana) (UniProt P32961)", "T2 sequence": "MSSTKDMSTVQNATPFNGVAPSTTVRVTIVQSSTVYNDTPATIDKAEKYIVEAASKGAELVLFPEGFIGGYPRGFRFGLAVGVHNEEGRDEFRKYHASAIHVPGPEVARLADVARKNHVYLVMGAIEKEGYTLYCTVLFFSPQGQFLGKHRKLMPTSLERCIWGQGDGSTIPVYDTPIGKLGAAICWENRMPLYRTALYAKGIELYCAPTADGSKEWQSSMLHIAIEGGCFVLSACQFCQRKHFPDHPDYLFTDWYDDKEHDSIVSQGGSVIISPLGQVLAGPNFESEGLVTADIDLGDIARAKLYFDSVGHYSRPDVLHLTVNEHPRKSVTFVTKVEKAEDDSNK", "assay": "co-IP"}, "[3]": {"biological_target": "T3, 6XHis-GST-ATG8A (Arabidopsis thaliana) (UniProt Q8LEM4)", "T3 sequence": "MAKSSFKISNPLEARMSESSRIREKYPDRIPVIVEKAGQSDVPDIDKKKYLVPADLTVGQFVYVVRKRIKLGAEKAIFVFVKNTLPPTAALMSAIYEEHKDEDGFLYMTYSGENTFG", "assay": "pull-down"}, "[4]": {"biological_target": "GST-ATG8A deficient in the AIM docking site (ADS) (Arabidopsis thaliana) (UniProt Q8LEM4)", "assay": "pull-down"}}, "note": "These are yes or no findings as the source states them, for the method shown. In cells and extracts the contact can be indirect. For some of these results: A result given as binding can be weak or reduced; the word gives no strength. For some of these results: Tags and fused reporters may be left off the sequences shown.", "data": [{"molecule": "EDS1, endogenous", "values": [{"measurement": "binding", "setting": "[1]", "result": "binds"}, {"measurement": "binding", "setting": "[2]", "result": "binds"}]}, {"molecule": "MBP-IMPDH1 Bateman domain (Arabidopsis thaliana) (domain or fragment)", "values": [{"measurement": "binding", "setting": "[3]", "result": "binds"}]}, {"molecule": "His-MBP-IMPDH1 (enzyme, UniProt P47996 1-503) MSTLEDGFPADKLFAQGYSYTYDDVIFLPHFIDFSTDAVSLSTRLSRRVPLSIPCVSSPMDTVSESHMAAAMASLGGIGIVHYNCGIAAQASIIRQAKSLKHPIASDAGVKFPEYEITSLDAFGPSSFVFVEQTGTMTTPKLLGYVTKSQWKRMNYEQREMKIYDYMKSCDSSDYCVPWEIDFEKLEFVLEDKQKGFVVLERDGETVNVVTKDDIQRVKGYPKSGPGTVGPDGEWMVGAAIGTRESDKERLEHLVNVGVNAVVLDSSQGNSIYQLEMIKYVKKTYPELDVIGGNVVTMYQAQNLIQAGVDGLRVGMGSGSICTTQEVCAVGRGQATAVYKVCSIAAQSGIPVIADGGISNSGHIVKALVLGASTVMMGSFLAGSTEAPGGYEYTNGKRIKKYRGMGSLEAMTKGSDQRYLGDQTKLKIAQGVVGAVADKGSVLKLIPYTMHAVKQGFQDLGASSLQSAHGLLRSNILRLEARTGAAQVEGGVHGLVSYEKKSF", "values": [{"measurement": "binding", "setting": "[4]", "result": "no binding"}]}]}
